Results taken from US20100129319A1, “TREATMENT OF DISEASE OR INJURY OF THE NERVOUS SYSTEM USING AGENTS THAT DECREASE THE ACTIVITY OF THE MELANOCORTIN 4 RECEPTOR” (priority 2006, published 2010).
For part of these data: At least one compound was matched to its structure with a doubt left. Some entries share one result that the patent states for a list of compounds.

By UniProt entry, the sequences of proteins in these tests, tags left out.
UniProt P32245, whole entry, species assumed: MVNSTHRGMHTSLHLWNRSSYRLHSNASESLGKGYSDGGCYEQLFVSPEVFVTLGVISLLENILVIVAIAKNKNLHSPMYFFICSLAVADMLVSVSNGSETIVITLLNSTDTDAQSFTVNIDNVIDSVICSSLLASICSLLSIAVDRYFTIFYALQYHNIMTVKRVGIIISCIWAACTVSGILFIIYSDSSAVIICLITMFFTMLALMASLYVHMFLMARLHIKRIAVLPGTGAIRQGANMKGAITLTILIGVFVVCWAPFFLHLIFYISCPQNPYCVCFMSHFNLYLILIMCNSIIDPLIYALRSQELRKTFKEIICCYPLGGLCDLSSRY

Assays:
MC4R = MC4R (Homo sapiens, UniProt P32245); details: cited from earlier work
adult neural stem cells = assay: ATP assay (intracellular ATP, cell number) in suspension cultures; type: cell-based, mice; details: in vitro assays of Example 3
Procedure: The anterior lateral wall of the lateral ventricle wall (LVW) of 5 week old mice was enzymatically dissociated at 37° C. for 20 min in 0.8 mg/mL hyaluronidase and 0.5 mg/mL trypsin in DMEM containing 4.5 mg/mL glucose and 80 units/mL DNase. The cells were diluted in 5 mL of DMEM/F12 medium (containing B27 supplement, […] HEPES Ph 7.4, 100 units/mL penicillin, and 100 micrograms/mL streptomycin). After passing through a 70 micron strainer, the cells were pelleted at 240×g for 5 minutes, washed and recentrifuged. The supernatant was subsequently removed and the cells resuspended in medium supplemented with 20 nanogram/mL EGF, plated out in culture dishes and incubated at 37° C. Neurosphere cultures were ready to be split approximately 7 days after plating.
To split the neurosphere cultures, neurospheres were collected by centrifugation at 240×g for 5 minutes. The supernatant was discarded and the neurospheres were resuspended in 0.5 mL Trypsin/EDTA in HBSS (1×) and incubated at 37° C. for 2 minutes. During this period, the neurospheres were triturated gently to aid dissociation. Following a further 2 min incubation at 37° C. and trituration, 2 volumes of DMEM-F12+B27 medium were added. […]
The following experiment was performed in quadruplicate. […] Intracellular ATP was measured using a Cell Viability kit SL according to the manufacturer's instructions (#188-441, BioThema, Sweden). […]

Molecule	Selectivity (over MC3) (MC4R)	dose range effective in increasing the number of adult neural stem cells compared to controls (adult neural stem cells)
O=C(N[C@H](Cc1ccc(Cl)cc1Cl)C(=O)N1CCN(c2ccccc2CNCCc2cccs2)CC1)OCCF [Pontillo14c]	240-fold	–
[acetyl group]-Cys-Glu-His-(diCl-D-Phe)-Arg-Trp-Gly-Cys-Pro-Pro-Lys-Asp-[amide group] (CEHFRWGCPPKD; acetyl, amide, diCl-D-Phe, cyclic) [HS028]	–	1 to 100 nM
[acetyl group]-Cys-Glu-His-(D-2-Nal)-Arg-Trp-Gly-Cys-Pro-Pro-Lys-Asp-[amide group] [HS014]	–	1 to 100 nM
